Data reported in PubChem BioAssay AID248 (DTP/NCI, 2004).
The list is a part of this screen's results and no random one: it is rich in T/C values a quarter to a half above the control, in often repeated tests (any T/C) and in doses without a T/C. Other doses and runs of a compound stand elsewhere. T/C: endpoint of the treated group in % of that of the vehicle group. Some doses have a count of surviving animals in place of a T/C: the source files T/C as zero there, which appears to mark a toxic dose or a test without result, not a measured value. Some doses without a T/C left all or most animals alive at the check, yet need not have been tolerated: the source hardly ever lists a survival T/C far under the control, and the zero likely stands for such cases as well. Survivors were counted at the toxicity check, usually on the fifth day, unless a day is given; later deaths do not show. Schedule codes are those of the source, taken here to give the interval after Q, in days (D) or hours (H), and the number of doses after X. Some schedule codes hold Z or #, which are not explained here. Some entries hold several experiments; the values are given in rising order. For survival time, this PubChem deposit counts one and a half times the control or more as active, and values a quarter to a half above the control carry no call in these data; other NCI protocols may use other cut-offs.

Test system: L1210 leukemia ip in BDF1 mice, survival T/C
Test: NCI In Vivo Anticancer Drug Screen. Data for tumor model L1210 Leukemia (intraperitoneal) in B6D2F1 (BDF1) mice
Conditions: T/C endpoint: mean survival time, higher T/C = longer survival
[1] = dose: 200.0 mg/kg/injection, schedule: Q01DX001 (ip), vehicle: saline
[2] = dose: 200.0 mg/kg/injection, schedule: Q01DX009 (ip), vehicle: Klucel (hydroxypropylcellulose) (HPC)
[3] = dose: 400.0 mg/kg/injection, schedule: Q01DX001 (ip), vehicle: saline
[4] = dose: 100.0 mg/kg/injection, schedule: Q01DX001 (ip), vehicle: saline

## CC(C(O)c1ccccc1)[n+]1ccccc1 (stereo unspecified)
dose: 150.0 mg/kg/injection, schedule: Q01DX001 (ip), vehicle: saline
  survivor count: 0 of 6
dose: 300.0 mg/kg/injection, schedule: Q01DX001 (ip), vehicle: saline
  survivor count: 0 of 6

## CC1(/C=N\NC(=O)CCCC(=O)N/N=C/C2(C)CCC=CO2)CCC=CO1 (stereo unspecified)
[1]
  survivor count: 4 of 4

## ClCCN(CCCl)c1ccc(CCN2CCCCC2)cc1
dose: 50.0 mg/kg/injection, schedule: Q01DX009 (ip), vehicle: Klucel (hydroxypropylcellulose) (HPC)
  survivor count: 3 of 3
dose: 100.0 mg/kg/injection, schedule: Q01DX009 (ip), vehicle: Klucel (hydroxypropylcellulose) (HPC)
  survivor count: 0 of 3
[2]
  survivor count: 0 of 3

## O=Cc1ccc2cccnc2c1O
[3]
  survivor count: 1 of 4

## CN(C)C(CC(=O)c1ccccc1)C(=O)O (stereo unspecified)
dose: 400.0 mg/kg/injection, schedule: Q04DX003 (ip), vehicle: saline
  survivor count: 0 of 6

## Cc1cnc(C#N)c(-n2ccnc2)n1
dose: 300.0 mg/kg/injection, schedule: Q01DX009 (ip), vehicle: water
  survivor count: 0 of 6
dose: 400.0 mg/kg/injection, schedule: Q04DX003 (ip), vehicle: water
  survivor count: 3 of 6

## C=CCn1c(-c2ccc(N(C)C)cc2)nc2c(Cl)ncnc21
dose: 200.0 mg/kg/injection, schedule: Q01DX001 (ip), vehicle: steroid suspending solution
  survivor count: 1 of 6
dose: 400.0 mg/kg/injection, schedule: Q01DX001 (ip), vehicle: steroid suspending solution
  survivor count: 0 of 6

## Cc1c(O)ccc(=O)n1O
dose: 73.0 mg/kg/injection, schedule: Q01DX Z (ip), vehicle: methylcellulose (MC)
  T/C: 130 % of control
dose: 110.0 mg/kg/injection, schedule: Q01DX Z (ip), vehicle: methylcellulose (MC)
  T/C: 130 % of control
dose: 133.0 mg/kg/injection, schedule: Q01DX001 (ip), vehicle: carboxymethylcellulose (CMC)
  T/C: 126 % of control
dose: 143.0 mg/kg/injection, schedule: Q01DX009 (ip), vehicle: Klucel (hydroxypropylcellulose) (HPC)
  T/C: 131 % of control
dose: 143.0 mg/kg/injection, schedule: Q03HX024 (ip), vehicle: Klucel (hydroxypropylcellulose) (HPC)
  survivor count: 8 of 10
dose: 165.0 mg/kg/injection, schedule: Q01DX Z (ip), vehicle: methylcellulose (MC)
  T/C: 131 % of control
dose: 200.0 mg/kg/injection, schedule: Q01DX001 (ip), vehicle: carboxymethylcellulose (CMC)
  T/C: 125 % of control
dose: 215.0 mg/kg/injection, schedule: Q01DX009 (ip), vehicle: Klucel (hydroxypropylcellulose) (HPC)
  survivor count: 8 of 10
dose: 247.0 mg/kg/injection, schedule: Q01DX Z (ip), vehicle: carboxymethylcellulose (CMC)
  survivor count: 6 of 6
dose: 247.0 mg/kg/injection, schedule: Q01DX Z (ip), vehicle: saline
  survivor count: 6 of 6
dose: 322.0 mg/kg/injection, schedule: Q01DX009 (ip), vehicle: Klucel (hydroxypropylcellulose) (HPC)
  survivor count: 6 of 10
dose: 322.0 mg/kg/injection, schedule: Q03HX024 (ip), vehicle: Klucel (hydroxypropylcellulose) (HPC)
  survivor count: 0 of 10
dose: 370.0 mg/kg/injection, schedule: Q01DX Z (ip), vehicle: saline
  survivor count: 0 of 6
dose: 520.0 mg/kg/injection, schedule: Q01DX001 (ip), vehicle: Klucel (hydroxypropylcellulose) (HPC)
  survivor count: 6 of 10
dose: 520.0 mg/kg/injection, schedule: Q04DX003 (ip), vehicle: Klucel (hydroxypropylcellulose) (HPC)
  survivor count: 3 of 10 and 4 of 10
dose: 800.0 mg/kg/injection, schedule: Q01DX001 (ip), vehicle: carboxymethylcellulose (CMC)
  survivor count: 0 of 4
dose: 800.0 mg/kg/injection, schedule: Q01DX009 (ip), vehicle: Klucel (hydroxypropylcellulose) (HPC)
  survivor count: 1 of 8
dose: 960.0 mg/kg/injection, schedule: Q01DX001 (ip), vehicle: Klucel (hydroxypropylcellulose) (HPC)
  survivor count: 0 of 10
dose: 960.0 mg/kg/injection, schedule: Q04DX003 (ip), vehicle: Klucel (hydroxypropylcellulose) (HPC)
  survivor count: 0 of 10
dose: 1430.0 mg/kg/injection, schedule: Q01DX001 (ip), vehicle: Klucel (hydroxypropylcellulose) (HPC)
  survivor count: 0 of 10
dose: 1430.0 mg/kg/injection, schedule: Q04DX003 (ip), vehicle: Klucel (hydroxypropylcellulose) (HPC)
  survivor count: 0 of 10
dose: 2150.0 mg/kg/injection, schedule: Q01DX001 (ip), vehicle: Klucel (hydroxypropylcellulose) (HPC)
  survivor count: 0 of 10
dose: 2150.0 mg/kg/injection, schedule: Q04DX003 (ip), vehicle: Klucel (hydroxypropylcellulose) (HPC)
  survivor count: 0 of 10
dose: 3220.0 mg/kg/injection, schedule: Q01DX001 (ip), vehicle: Klucel (hydroxypropylcellulose) (HPC)
  survivor count: 0 of 10
dose: 3220.0 mg/kg/injection, schedule: Q04DX003 (ip), vehicle: Klucel (hydroxypropylcellulose) (HPC)
  survivor count: 0 of 10

## O=[N+]([O-])c1ccc(N/N=C\c2ccc(OCCOCCCl)cc2)c([N+](=O)[O-])c1
dose: 200.0 mg/kg/injection, schedule: Q01DX001 (ip), vehicle: saline with Tween-80
  survivor count: 6 of 6
dose: 400.0 mg/kg/injection, schedule: Q01DX001 (ip), vehicle: saline with Tween-80
  survivor count: 6 of 6

## CCC[CH2][Pb]([CH2]CCC)([O]C(C)=O)[O]C(C)=O
dose: 50.0 mg/kg/injection, schedule: Q01DX001 (ip), vehicle: saline
  survivor count: 0 of 4
[4]
  survivor count: 0 of 4
[1]
  survivor count: 0 of 4
[3]
  survivor count: 0 of 4

## CC(=O)Nc1ccc(CCCCc2c(C)nc(NC(C)=O)[nH]c2=O)cc1
dose: 400.0 mg/kg/injection, schedule: Q01DX001 (ip), vehicle: Klucel (hydroxypropylcellulose) (HPC)
  survivor count: 6 of 6

## Cc1cc2ncn(CC(=O)NN)c2cc1C
dose: 200.0 mg/kg/injection, schedule: Q01DX009 (ip), vehicle: saline with Tween-80
  survivor count: 6 of 6
dose: 400.0 mg/kg/injection, schedule: Q01DX009 (ip), vehicle: saline with Tween-80
  survivor count: 6 of 6

## COc1ccc(N2CSC(=S)N(c3ccc(OC)cc3)C2)cc1
dose: 100.0 mg/kg/injection, schedule: Q04DX003 (ip), vehicle: saline
  survivor count: 6 of 6
dose: 200.0 mg/kg/injection, schedule: Q04DX003 (ip), vehicle: saline
  survivor count: 6 of 6

## CS(=O)(=O)OCCNC[C@@H](O)[C@@H](O)CNCCOS(C)(=O)=O
dose: 3.9 mg/kg/injection, schedule: Q01DX001 (ip), vehicle: saline
  T/C: 128 and 134 % of control
dose: 6.5 mg/kg/injection, schedule: Q01DX001 (ip), vehicle: saline
  T/C: 144 % of control
dose: 10.8 mg/kg/injection, schedule: Q01DX001 (ip), vehicle: saline
  T/C: 136 and 138 % of control
dose: 18.0 mg/kg/injection, schedule: Q01DX001 (ip), vehicle: saline
  T/C: 138 % of control
dose: 83.3 mg/kg/injection, schedule: Q01DX001 (ip), vehicle: saline
  survivor count: 8 of 8
[4]
  survivor count: 6 of 8
[1]
  survivor count: 0 of 6
[3]
  survivor count: 0 of 6

## CC(C)(CCCCC(C)(C)NC(=O)Nc1ccc(Cl)c(Cl)c1)NC(=O)Nc1ccc(Cl)c(Cl)c1
dose: 400.0 mg/kg/injection, schedule: Q01DX001 (ip), vehicle: carboxymethylcellulose (CMC)
  survivor count: 4 of 4

## CC(C)c1ccc(/C(=N\NC(N)=S)C2CC2)cc1
dose: 15.0 mg/kg/injection, schedule: Q01DX Z (ip), vehicle: methylcellulose (MC)
  survivor count: 0 of 6
dose: 30.0 mg/kg/injection, schedule: Q01DX Z (ip), vehicle: methylcellulose (MC)
  survivor count: 0 of 6
dose: 60.0 mg/kg/injection, schedule: Q01DX Z (ip), vehicle: methylcellulose (MC)
  survivor count: 0 of 6
dose: 120.0 mg/kg/injection, schedule: Q01DX Z (ip), vehicle: methylcellulose (MC)
  survivor count: 0 of 6

## COc1cc(C(=O)Nc2ccc(C3=NCCN3)cc2)cc(C(=O)Nc2ccc(C3=NCCN3)cc2)c1
dose: 15.0 mg/kg/injection, schedule: Q01DX Z (ip), vehicle: saline
  T/C: 132 % of control

## N#Cc1c(=O)[nH]c2ccccc2[n+]1[O-]
[2]
  survivor count: 1 of 3

## O=C(c1ccccc1)C1C(c2ccccc2)OP(c2ccccc2)(c2ccccc2)(c2ccccc2)C1c1ccccc1 (stereo unspecified)
dose: 6.25 mg/kg/injection, schedule: Q01DX009 (ip), vehicle: saline with Tween-80
  survivor count: 3 of 6
dose: 12.5 mg/kg/injection, schedule: Q04DX003 (ip), vehicle: saline with Tween-80
  survivor count: 6 of 6
dose: 25.0 mg/kg/injection, schedule: Q01DX009 (ip), vehicle: saline with Tween-80
  survivor count: 1 of 6
